Assay results as given in PubChem BioAssay AID1347131 (National Center for Advancing Translational Sciences (NCATS), 2019).
Hit rate of the full screen: of about 410,000 compounds, about 2,000 (0.49%) were called active. The shares of active, inactive and inconclusive entries below differ from those in the screen. Calls come from the whole dose curve; tested in HEK293 reporter line. Potencies of inconclusive entries are doubtful fits and often do not repeat.

assay: qHTS Assay for Foot and Mouth Disease Virus Antivirals: Primary Screen against the MLPCN compound library; conditions: FMDV antiviral cell-based qHTS; activity, negative = inhibition: at 57.9 µM (top of the series); note: nearly all actives have a fitted effect of over 55% in size
Potency is the fitted concentration of half-maximal effect.

| Structure (SMILES) | Potency | activity, negative = inhibition |
| --- | --- | --- |
| CC(=O)N1CC(C)Sc2ccc(S(=O)(=O)NC(C)c3ccccc3)cc21 (centres undefined) | inconclusive: 1.12 µM [inhibitor, full curve] |  |
| CCCn1nnc(NC(=O)COc2ccc(C3CCCCC3)cc2)n1 | inconclusive: 17.8 µM [inhibitor, partial curve] |  |
| CCOC(=O)C(C(=O)OCC)C(c1ccccc1)N1CCN(c2ccccc2)CC1 (centres undefined) | inconclusive: 39.8 µM [inhibitor, single point] |  |
| CS(=O)(=O)c1nc([N+](=O)[O-])nn1CCCc1ccccc1 | inconclusive: 17.8 µM [inhibitor, partial curve, poor fit] |  |
| O=C(Nc1nc2c(s1)C(=O)CCC2)c1ccccc1 | inconclusive: 20 µM [inhibitor, single point] |  |
| Cc1ccc(C(=O)C(c2ccccc2)N2Cc3ccccc3C2=N)cc1 (centres undefined) | inconclusive: 31.6 µM [inhibitor, partial curve, poor fit] |  |
| Cc1ccc(Cc2cn3cc(-c4ccccc4)nc3s2)cc1 | inconclusive: 17.8 µM [inhibitor, single point] |  |
| O=C(Oc1cccc(Nc2ncnc3ccccc23)c1)c1ccccc1Cl | inconclusive: 17.8 µM [inhibitor, partial curve, poor fit] |  |
| CCN(Cc1ccccc1)C(=O)Cn1c(=O)n(-c2ccc(Cl)cc2)c(=O)c2c(C)c(C)sc21 |  | inconclusive: -32% [inhibitor] |
| Cc1ccccc1N(C=O)c1ccccc1C | inconclusive: 0.794 µM [inhibitor, full curve] |  |
| COc1ccccc1NC(=O)c1ccc(S(=O)(=O)N(C)C)cc1 | inconclusive: 7.94 µM [inhibitor, partial curve] |  |
| Cc1ccc2oc(C(=O)Nc3ccc(S(=O)(=O)N4CCCCCC4)cc3)cc(=O)c2c1 | inconclusive: 3.16 µM [inhibitor, full curve] |  |
| CCOC(=O)c1ccc(Oc2nc(C)nc3c2oc2ccccc23)cc1 | inconclusive: 14.1 µM [inhibitor, partial curve] |  |
| CCOC(=O)c1cccc(NC(=O)CSc2cc(=O)n(C)c3ccccc23)c1 | inconclusive: 11.2 µM [inhibitor, partial curve] |  |
| O=[N+]([O-])c1ccccc1/C=C/c1ccc2ccccc2n1 | inconclusive: 35.5 µM [inhibitor, single point] |  |
| O=C(COc1ccc(Cl)cc1)Nc1ccc2nc(SCC(=O)N3CCOCC3)sc2c1 | inconclusive: 8.91 µM [inhibitor, partial curve] |  |
| O=C1CCCN2N=C(SCC(=O)Nc3ccc(OC(F)(F)F)cc3)SC2=N1 |  | inactive: -31% |
| Cc1cccc(NC(=O)Cc2nc(-c3c[nH]c(C(=O)N4CCCC4)c3)cs2)c1 | inconclusive: 35.5 µM [inhibitor, single point] |  |
| O=C(Nc1cccc(C(F)(F)F)c1)c1ccc2sc([C@H]3C[C@H](O)[C@@H](CO)O3)nc2c1 | inconclusive: 20 µM [inhibitor, partial curve, poor fit] |  |
| O=C1c2cccc3c(O)ccc(c23)C(=O)N1c1ccc(Cl)cc1 | inconclusive: 12.6 µM [inhibitor, partial curve, poor fit] |  |

Some of the entries so far, as labelled records:
CCOC(=O)c1cccc(NC(=O)CSc2cc(=O)n(C)c3ccccc23)c1
  Potency: inconclusive: 11.2 µM [inhibitor, partial curve]
O=[N+]([O-])c1ccccc1/C=C/c1ccc2ccccc2n1
  Potency: inconclusive: 35.5 µM [inhibitor, single point]
O=C(COc1ccc(Cl)cc1)Nc1ccc2nc(SCC(=O)N3CCOCC3)sc2c1
  Potency: inconclusive: 8.91 µM [inhibitor, partial curve]
O=C1CCCN2N=C(SCC(=O)Nc3ccc(OC(F)(F)F)cc3)SC2=N1
  activity, negative = inhibition: inactive: -31%

(listing goes on)

| Structure (SMILES) | Potency | activity, negative = inhibition |
| --- | --- | --- |
| Cc1ccnc(NC(=O)Nc2cccc(F)c2)c1 | inconclusive: 20 µM [inhibitor, single point] |  |
| O=C(NCc1cccnc1)/C(=C/c1ccc(-c2ccc(Cl)cc2)o1)S(=O)(=O)c1ccccc1 | inconclusive: 3.55 µM [inhibitor, full curve, poor fit] |  |
| CN1CCN(S(=O)(=O)c2ccc(Sc3nnnn3-c3ccccc3)c([N+](=O)[O-])c2)CC1 | inconclusive: 20 µM [inhibitor, partial curve, poor fit] |  |
| Cn1nnnc1Sc1ncnc2scc(-c3cccc4c3sc3ccccc34)c12 | inconclusive: 28.2 µM [inhibitor, partial curve, poor fit] |  |
| COc1cccc(C(=O)O/N=C(\N)c2ccccn2)c1OC | inconclusive: 14.1 µM [inhibitor, partial curve] |  |
| COc1ccccc1N(C(=O)CCl)c1cn(C(C)=O)c2ccccc12 | inconclusive: 17.8 µM [inhibitor, partial curve, poor fit] |  |
| Cc1ccc2[nH]cc(CCNS(=O)(=O)c3ccc(F)cc3)c2c1 | inconclusive: 5.01 µM [inhibitor, full curve] |  |
| Oc1cc2ccccc2cc1-c1n[nH]c(=S)n1Cc1ccco1 | inconclusive: 15.8 µM [inhibitor, partial curve] |  |
| CO/N=C(\c1nonc1N)N1CCN(c2ccc(Cl)cc2[N+](=O)[O-])CC1 | inconclusive: 35.5 µM [inhibitor, partial curve, poor fit] |  |
| N#CC1=C(N)C(C#N)(C#N)C(c2cccnc2)C2CN(C(=O)OCc3ccccc3)CC=C12 (centres undefined) | active: 22.4 µM |  |
| Cc1cccc(-c2nc(CSCC(=O)N3CCN(c4ccccn4)CC3)c(C)o2)c1 | inconclusive: 15.8 µM [inhibitor, partial curve, poor fit] |  |
| COc1ccc(C=C2CS(=O)(=O)CC(=Cc3ccc(OC)cc3)C2=O)cc1 | inconclusive: 12.6 µM [inhibitor, partial curve, poor fit] |  |
| COc1ccc(NS(=O)(=O)c2ccc(C(=O)N3CCCCCC3)cc2)cc1 | inconclusive: 4.47 µM [inhibitor, partial curve] |  |
| CCn1c(N2CCC(Cc3ccccc3)CC2)nc2c1c(=O)[nH]c(=O)n2C | inconclusive: 28.2 µM [inhibitor, partial curve, poor fit] |  |
| COc1ccc(C(=O)Nc2nc3ccccc3s2)c(OC)c1 |  | inactive: -99.7% |
| O=C1/C(=C/c2ccncc2)SC(=S)N1Nc1ccccc1 | inconclusive: 20 µM [inhibitor, partial curve, poor fit] |  |
| CC(C)Oc1ccc(CNC(=O)C2CCN(C(=O)N3CCOc4ccc(Cl)cc43)CC2)cc1 | inconclusive: 3.16 µM [inhibitor, full curve] |  |
| O=C1C=C(C2OC(CO)C(O)C2O)C(=O)N1 (centres undefined) | inconclusive: 39.8 µM [inhibitor, partial curve, poor fit] |  |
| COc1cc(-c2nc3cnccn3c2Nc2ccc(C(C)C)cc2)ccc1O | inconclusive: 39.8 µM [inhibitor, partial curve, poor fit] |  |
| COc1ccc(-c2n[nH]c(C)c2-c2ccc(Cl)cc2)c(O)c1OC | inconclusive: 31.6 µM [inhibitor, partial curve, poor fit] |  |

| Structure (SMILES) | Potency | activity, negative = inhibition |
| --- | --- | --- |
| CCOc1ccc(-c2ccc(/C=C3/C(=N)N4C=CSC4=NC3=O)o2)c([N+](=O)[O-])c1 |  | inactive: -9.4% |
| COCCn1c(=NC(=O)c2cc(-c3cccs3)nc3ccccc23)sc2cc(S(N)(=O)=O)ccc21 | inconclusive: 8.91 µM [inhibitor, partial curve] |  |
| Cc1ccccc1C(=O)NC1CCN(C(=O)N(c2ccccc2)c2ccccc2)CC1 | inconclusive: 14.1 µM [inhibitor, partial curve] |  |
| COc1cc(NC(=O)C2CC(c3ccccc3Cl)=NO2)cc(OC)c1OC (centres undefined) | inconclusive: 17.8 µM [inhibitor, single point] |  |
| Cc1cccc(N2CCN(C(=O)C3CCN(S(=O)(=O)c4cccc5nsnc45)CC3)CC2C)c1 (centres undefined) | inconclusive: 25.1 µM [inhibitor, partial curve, poor fit] |  |
| CCc1nc(C)cn1S(=O)(=O)c1cc([N+](=O)[O-])ccc1Cl | inconclusive: 20 µM [inhibitor, partial curve, poor fit] |  |
| CCOC(=O)C1(Cc2ccccc2)CCN(Cc2cccn2-c2cccnc2)CC1 |  | inactive: -33.3% |
| CCCC(=O)Nc1cnc(NC(=O)c2cccc(F)c2)cc1C | inconclusive: 20 µM [inhibitor, single point] |  |
| CCC(OCC(O)CN1CCN(CCN2C(=O)c3cccc4cccc(c34)C2=O)CC1)c1ccccc1 (centres undefined) | inconclusive: 28.2 µM [inhibitor, partial curve, poor fit] |  |
| CC(=O)N1CCc2cc(S(=O)(=O)CCC(=O)N3CCN(c4cc(C)ccc4C)CC3)ccc21 |  | inactive: -32.1% |
| COc1ccc(/C=C/C(=O)N2CCN(S(=O)(=O)c3ccccc3Br)CC2)cc1OC |  | inconclusive: -33.5% [inhibitor] |
| COc1ccc2nc(-c3ccc(F)cc3)sc2c1 | inconclusive: 11.2 µM [inhibitor, single point] |  |
| c1ccc(CCNc2ccnc3cc4ccccc4cc23)cc1 | inconclusive: 14.1 µM [inhibitor, partial curve, poor fit] |  |
| O=C1c2ccccc2S(=O)(=O)c2cc(N3CCN(C(=O)c4ccccc4)CC3)ccc21 | inconclusive: 39.8 µM [inhibitor, partial curve, poor fit] |  |
| CCN(CC)CCCNC(=O)c1cc2nc(-c3ccccc3)cc(C(F)(F)F)n2n1 | inconclusive: 1.78 µM [inhibitor, full curve] |  |
| COc1ccc(Cl)cc1S(=O)(=O)Oc1ccc(NC(C)=O)cc1 | inconclusive: 4.47 µM [inhibitor, full curve] |  |
| COc1ccc(-[n+]2c(-c3ccccc3)cc(-c3ccccc3)cc2-c2ccccc2)cc1 | inconclusive: 3.16 µM [inhibitor, full curve, poor fit] |  |
| COc1ccccc1N1CCN(C(=O)C(C)NC(=O)c2cccc([N+](=O)[O-])c2)CC1 (centres undefined) | inconclusive: 11.2 µM [inhibitor, partial curve, poor fit] |  |
| CC(=O)c1cccc(NC(=O)c2ccc(-c3ccccc3[N+](=O)[O-])o2)c1 | inconclusive: 39.8 µM [inhibitor, single point] |  |
